PubChem BioAssay AID743121 | NCATS | 2013

Screen: 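Genes whose silencing strengthens cell killing by camptothecin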 (primary screen)
Cells: MDA-MB-231 cells, a human breast cancer line
Knock-down reagent: single siRNA against human genes, 20 nM siRNA (0.8 pmol per well)
Duration: 120 h (drug added 48 h after transfection, read 72 h later)
Conditions: camptothecin 20 nM (about EC30) for 72 h; vehicle 0.1% DMSO in parallel plates
Detection: 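CellTiter-Glo ATP signal, scaled to control siRNA as percent viability; sensitisation given as log2 of untreated divided by camptothecin-treated viability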
Reading the numbers: log2 vehicle/camptothecin viability: higher = stronger sensitisation to camptothecin
Rule for the call: 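Each gene scored by redundant siRNA activity (RSA) over its individual siRNA ratios; a gene is called active at p < 0.001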
Here is one part, drawn at random, of about 26,000 reagents. Over the whole deposit, 167 (0.63%) got an active call. 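Calls are per gene from RSA p-values that are not deposited; an individual active-marked siRNA can sensitise only weakly.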 Reagents against one gene are numbered here. Further read-outs or replicates are left out here.

PIK3AP1 (phosphoinositide-3-kinase adaptor protein 1) #1 showed log2 vehicle/camptothecin viability -0.105; inactive.
With knock-down of PIK3AP1 (phosphoinositide-3-kinase adaptor protein 1) #2 the results were log2 vehicle/camptothecin viability -0.428; inactive.
Against PIK3AP1 (phosphoinositide-3-kinase adaptor protein 1) #3, the values are log2 vehicle/camptothecin viability -0.65; inactive.
Silencing of PIK3AP1 (phosphoinositide-3-kinase adaptor protein 1) #4 gave: log2 vehicle/camptothecin viability -0.412; inactive.

Individual results from the list.
PIK3AP1 (phosphoinositide-3-kinase adaptor protein 1) #1, Outcome: inactive
PIK3AP1 (phosphoinositide-3-kinase adaptor protein 1) #2, Outcome → inactive

Continued.
For CLCN5 (Cl-/H+ antiporter 5) #1 the deposit lists log2 vehicle/camptothecin viability -0.742; inactive.
Against CLCN5 (Cl-/H+ antiporter 5) #2, the entry reads log2 vehicle/camptothecin viability -0.304; inactive.
With knock-down of CLCN5 (Cl-/H+ antiporter 5) #3 the results were log2 vehicle/camptothecin viability -0.202; inactive.
SERPINB13 (serpin family B member 13) #1 showed log2 vehicle/camptothecin viability -0.0155; inactive.
With knock-down of SERPINB13 (serpin family B member 13) #2 the results were log2 vehicle/camptothecin viability -0.224; inactive.
SERPINB13 (serpin family B member 13) #3 showed log2 vehicle/camptothecin viability 0.347; inactive.
SERPINB13 (serpin family B member 13) #4 showed log2 vehicle/camptothecin viability -0.21; inactive.
Silencing of DLX3 (distal-less homeobox 3) #1 came out at: log2 vehicle/camptothecin viability -0.519; inactive.
After knock-down of DLX3 (distal-less homeobox 3) #2, the record shows log2 vehicle/camptothecin viability -0.755; inactive.
After knock-down of DLX3 (distal-less homeobox 3) #3, the screen gave log2 vehicle/camptothecin viability 0.00694; inactive.
